According to the supplement of paper PMC10849652:
This is one part of the list. Residues, ends and D or L forms follow the SMILES beside them. *: point of attachment. Cbz = O=C(OCc1ccccc1)*

Sequences of proteins named here, by UniProt entry; tags and fusion partners are left off. A change or cut given only in a name is not applied to a line headed by its entry.
UniProt O43752: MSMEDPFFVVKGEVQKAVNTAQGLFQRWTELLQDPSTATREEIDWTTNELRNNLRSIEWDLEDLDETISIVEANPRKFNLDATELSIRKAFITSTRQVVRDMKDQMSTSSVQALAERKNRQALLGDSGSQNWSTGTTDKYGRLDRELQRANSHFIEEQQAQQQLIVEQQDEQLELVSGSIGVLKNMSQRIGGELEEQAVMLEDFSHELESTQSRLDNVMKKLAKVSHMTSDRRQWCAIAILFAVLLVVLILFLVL
UniProt P16949: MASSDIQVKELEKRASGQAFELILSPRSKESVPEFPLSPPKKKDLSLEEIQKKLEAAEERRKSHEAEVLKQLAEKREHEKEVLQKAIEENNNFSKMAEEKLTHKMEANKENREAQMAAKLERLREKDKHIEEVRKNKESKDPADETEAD
UniProt Q6NXT6: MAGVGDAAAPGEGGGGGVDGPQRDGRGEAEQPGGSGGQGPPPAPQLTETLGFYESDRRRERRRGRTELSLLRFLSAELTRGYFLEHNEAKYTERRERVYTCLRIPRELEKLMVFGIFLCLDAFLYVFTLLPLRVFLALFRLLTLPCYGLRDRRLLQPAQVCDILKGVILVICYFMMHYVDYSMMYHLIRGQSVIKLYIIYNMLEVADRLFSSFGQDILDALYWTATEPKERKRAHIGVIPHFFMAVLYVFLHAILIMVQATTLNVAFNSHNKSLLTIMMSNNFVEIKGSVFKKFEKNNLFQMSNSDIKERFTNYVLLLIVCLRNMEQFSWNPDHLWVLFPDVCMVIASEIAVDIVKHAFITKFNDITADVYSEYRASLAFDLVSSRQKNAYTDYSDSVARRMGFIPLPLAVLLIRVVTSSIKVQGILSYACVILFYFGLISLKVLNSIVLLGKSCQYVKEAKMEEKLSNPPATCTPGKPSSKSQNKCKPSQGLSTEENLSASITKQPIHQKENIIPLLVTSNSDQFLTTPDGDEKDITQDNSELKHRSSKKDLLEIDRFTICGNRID
UniProt Q9NVG8: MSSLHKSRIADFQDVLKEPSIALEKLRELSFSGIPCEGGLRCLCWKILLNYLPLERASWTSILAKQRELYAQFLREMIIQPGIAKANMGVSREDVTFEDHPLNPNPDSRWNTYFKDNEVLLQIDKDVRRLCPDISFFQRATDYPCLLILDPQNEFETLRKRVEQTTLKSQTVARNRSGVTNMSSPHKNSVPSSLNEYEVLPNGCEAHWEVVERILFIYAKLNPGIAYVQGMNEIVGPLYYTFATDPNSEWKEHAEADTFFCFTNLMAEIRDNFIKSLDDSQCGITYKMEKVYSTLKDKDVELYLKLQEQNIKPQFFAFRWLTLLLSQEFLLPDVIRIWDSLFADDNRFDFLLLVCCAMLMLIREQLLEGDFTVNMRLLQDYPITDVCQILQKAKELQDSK
UniProt Q7Z7C8, whole entry, looked up: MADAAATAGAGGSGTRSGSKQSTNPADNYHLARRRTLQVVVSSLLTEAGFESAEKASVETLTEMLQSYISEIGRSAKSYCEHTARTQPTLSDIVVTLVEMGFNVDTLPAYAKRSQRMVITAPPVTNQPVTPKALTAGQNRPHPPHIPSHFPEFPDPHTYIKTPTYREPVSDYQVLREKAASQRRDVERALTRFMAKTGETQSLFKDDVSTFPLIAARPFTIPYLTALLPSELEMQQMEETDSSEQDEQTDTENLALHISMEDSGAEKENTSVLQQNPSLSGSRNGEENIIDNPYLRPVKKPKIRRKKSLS
UniProt P37802: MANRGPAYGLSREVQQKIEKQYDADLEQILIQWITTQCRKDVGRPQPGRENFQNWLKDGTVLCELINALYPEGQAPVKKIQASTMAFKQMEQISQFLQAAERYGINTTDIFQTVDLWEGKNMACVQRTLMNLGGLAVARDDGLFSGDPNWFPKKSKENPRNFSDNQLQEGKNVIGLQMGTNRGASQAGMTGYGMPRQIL
UniProt Q7Z422: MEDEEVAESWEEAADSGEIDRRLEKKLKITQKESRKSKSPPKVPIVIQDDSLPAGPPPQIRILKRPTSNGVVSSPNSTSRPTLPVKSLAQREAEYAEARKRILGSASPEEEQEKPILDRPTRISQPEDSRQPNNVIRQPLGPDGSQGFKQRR
UniProt P08247, whole entry, looked up: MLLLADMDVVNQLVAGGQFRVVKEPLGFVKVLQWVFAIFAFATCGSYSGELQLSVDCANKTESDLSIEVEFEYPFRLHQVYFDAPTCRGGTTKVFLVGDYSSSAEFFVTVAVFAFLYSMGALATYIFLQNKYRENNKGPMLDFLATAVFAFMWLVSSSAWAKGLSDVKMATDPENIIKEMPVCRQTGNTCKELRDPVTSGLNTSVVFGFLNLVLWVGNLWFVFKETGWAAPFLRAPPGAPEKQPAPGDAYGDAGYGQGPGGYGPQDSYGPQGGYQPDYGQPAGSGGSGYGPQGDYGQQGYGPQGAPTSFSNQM
UniProt Q9P2W9: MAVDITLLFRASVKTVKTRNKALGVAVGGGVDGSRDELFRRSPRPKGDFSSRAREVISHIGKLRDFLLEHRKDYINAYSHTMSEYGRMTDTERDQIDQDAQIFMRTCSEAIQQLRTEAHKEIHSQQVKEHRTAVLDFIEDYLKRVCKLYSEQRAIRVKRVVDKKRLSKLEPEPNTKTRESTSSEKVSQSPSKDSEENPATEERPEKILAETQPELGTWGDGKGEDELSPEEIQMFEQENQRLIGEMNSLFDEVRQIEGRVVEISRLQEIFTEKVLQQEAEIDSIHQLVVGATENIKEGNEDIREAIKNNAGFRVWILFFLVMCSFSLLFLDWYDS
UniProt P37837: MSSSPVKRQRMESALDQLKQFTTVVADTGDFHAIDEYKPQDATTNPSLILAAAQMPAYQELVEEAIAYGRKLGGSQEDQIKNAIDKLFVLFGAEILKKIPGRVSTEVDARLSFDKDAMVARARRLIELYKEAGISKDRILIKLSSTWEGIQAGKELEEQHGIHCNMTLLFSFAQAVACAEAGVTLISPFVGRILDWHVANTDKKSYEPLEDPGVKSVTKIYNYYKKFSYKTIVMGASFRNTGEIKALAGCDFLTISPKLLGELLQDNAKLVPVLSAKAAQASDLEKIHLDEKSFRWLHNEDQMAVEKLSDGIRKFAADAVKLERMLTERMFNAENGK
UniProt Q92804: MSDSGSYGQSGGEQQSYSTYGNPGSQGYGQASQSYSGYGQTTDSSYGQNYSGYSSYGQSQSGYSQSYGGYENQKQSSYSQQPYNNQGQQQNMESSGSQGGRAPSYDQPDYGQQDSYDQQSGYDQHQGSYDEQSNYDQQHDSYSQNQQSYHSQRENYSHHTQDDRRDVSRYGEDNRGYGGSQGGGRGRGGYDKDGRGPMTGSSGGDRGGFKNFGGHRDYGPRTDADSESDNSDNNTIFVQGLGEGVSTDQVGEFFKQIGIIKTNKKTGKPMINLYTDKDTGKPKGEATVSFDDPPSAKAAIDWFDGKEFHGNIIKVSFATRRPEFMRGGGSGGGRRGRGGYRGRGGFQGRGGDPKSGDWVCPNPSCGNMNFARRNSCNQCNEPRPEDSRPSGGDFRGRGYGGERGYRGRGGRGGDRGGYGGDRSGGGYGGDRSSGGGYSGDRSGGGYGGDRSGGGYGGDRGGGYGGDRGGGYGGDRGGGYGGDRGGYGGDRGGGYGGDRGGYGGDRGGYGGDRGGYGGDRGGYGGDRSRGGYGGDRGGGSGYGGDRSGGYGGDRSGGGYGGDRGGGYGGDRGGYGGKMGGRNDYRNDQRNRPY
UniProt Q96I99: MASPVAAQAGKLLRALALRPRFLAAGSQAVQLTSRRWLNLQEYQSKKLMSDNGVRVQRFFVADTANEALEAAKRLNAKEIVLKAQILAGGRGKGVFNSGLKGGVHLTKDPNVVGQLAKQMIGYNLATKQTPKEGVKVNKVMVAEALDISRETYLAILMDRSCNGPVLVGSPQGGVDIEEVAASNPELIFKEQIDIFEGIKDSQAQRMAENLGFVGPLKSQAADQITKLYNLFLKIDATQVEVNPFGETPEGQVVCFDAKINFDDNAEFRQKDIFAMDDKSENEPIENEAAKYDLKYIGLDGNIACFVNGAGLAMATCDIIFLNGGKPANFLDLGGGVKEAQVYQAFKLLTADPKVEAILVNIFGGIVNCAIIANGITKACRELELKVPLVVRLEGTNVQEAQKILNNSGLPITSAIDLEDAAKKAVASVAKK
UniProt Q9H2K8: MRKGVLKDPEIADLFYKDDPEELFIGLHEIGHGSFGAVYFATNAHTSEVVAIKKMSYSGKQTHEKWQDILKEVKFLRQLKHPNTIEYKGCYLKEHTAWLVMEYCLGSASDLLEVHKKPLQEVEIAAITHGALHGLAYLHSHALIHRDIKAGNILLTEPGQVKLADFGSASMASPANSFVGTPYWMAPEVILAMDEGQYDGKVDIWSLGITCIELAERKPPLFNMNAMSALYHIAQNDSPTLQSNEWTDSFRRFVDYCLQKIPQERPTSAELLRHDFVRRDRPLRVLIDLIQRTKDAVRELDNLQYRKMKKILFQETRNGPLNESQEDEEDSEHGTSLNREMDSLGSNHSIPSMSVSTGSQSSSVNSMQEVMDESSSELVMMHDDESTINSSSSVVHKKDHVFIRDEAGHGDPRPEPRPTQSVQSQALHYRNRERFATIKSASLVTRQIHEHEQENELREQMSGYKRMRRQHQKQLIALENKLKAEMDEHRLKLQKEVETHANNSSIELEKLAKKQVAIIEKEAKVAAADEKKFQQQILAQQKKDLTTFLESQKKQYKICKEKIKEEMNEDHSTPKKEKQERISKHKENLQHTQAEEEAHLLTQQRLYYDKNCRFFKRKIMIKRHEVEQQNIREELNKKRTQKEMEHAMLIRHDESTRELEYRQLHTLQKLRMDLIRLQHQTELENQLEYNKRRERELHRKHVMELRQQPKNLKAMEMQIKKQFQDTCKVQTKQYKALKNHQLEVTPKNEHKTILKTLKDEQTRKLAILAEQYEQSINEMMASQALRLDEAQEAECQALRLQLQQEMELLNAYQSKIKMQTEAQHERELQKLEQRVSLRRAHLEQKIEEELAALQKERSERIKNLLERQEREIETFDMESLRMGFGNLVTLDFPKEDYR
UniProt Q7L7X3: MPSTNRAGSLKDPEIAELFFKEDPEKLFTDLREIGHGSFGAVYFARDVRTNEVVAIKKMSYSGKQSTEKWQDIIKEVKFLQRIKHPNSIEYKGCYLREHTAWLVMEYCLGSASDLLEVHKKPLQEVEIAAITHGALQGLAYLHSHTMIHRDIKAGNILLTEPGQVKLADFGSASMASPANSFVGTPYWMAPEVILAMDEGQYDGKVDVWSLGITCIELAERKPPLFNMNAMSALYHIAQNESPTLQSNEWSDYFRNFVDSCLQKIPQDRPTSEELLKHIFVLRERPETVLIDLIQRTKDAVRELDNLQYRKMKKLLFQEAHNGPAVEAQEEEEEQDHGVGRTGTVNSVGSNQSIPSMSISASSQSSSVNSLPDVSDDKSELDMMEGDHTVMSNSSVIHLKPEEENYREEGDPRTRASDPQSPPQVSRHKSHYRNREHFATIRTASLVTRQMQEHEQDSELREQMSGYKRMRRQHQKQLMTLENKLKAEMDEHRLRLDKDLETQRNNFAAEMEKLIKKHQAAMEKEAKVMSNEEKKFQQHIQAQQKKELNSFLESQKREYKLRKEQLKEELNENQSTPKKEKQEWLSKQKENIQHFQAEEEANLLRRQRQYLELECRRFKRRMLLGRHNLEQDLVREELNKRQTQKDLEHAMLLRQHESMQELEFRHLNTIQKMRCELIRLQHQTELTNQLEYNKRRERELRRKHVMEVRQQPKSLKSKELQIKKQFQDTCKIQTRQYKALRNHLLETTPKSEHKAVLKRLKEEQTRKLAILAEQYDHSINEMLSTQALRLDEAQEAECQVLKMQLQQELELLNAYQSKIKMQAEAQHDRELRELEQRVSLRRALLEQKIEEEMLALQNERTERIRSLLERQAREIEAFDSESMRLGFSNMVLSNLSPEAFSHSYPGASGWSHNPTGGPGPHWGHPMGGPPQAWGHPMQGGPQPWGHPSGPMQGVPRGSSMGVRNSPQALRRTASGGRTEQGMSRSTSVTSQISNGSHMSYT
UniProt O15260: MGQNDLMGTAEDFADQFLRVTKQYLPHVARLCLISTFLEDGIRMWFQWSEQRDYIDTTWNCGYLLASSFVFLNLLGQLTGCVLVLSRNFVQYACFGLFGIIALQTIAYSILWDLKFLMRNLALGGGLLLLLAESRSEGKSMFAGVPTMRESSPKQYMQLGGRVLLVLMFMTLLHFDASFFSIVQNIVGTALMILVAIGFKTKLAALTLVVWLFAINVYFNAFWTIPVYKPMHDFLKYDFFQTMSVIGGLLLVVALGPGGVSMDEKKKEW
UniProt Q9H7L9: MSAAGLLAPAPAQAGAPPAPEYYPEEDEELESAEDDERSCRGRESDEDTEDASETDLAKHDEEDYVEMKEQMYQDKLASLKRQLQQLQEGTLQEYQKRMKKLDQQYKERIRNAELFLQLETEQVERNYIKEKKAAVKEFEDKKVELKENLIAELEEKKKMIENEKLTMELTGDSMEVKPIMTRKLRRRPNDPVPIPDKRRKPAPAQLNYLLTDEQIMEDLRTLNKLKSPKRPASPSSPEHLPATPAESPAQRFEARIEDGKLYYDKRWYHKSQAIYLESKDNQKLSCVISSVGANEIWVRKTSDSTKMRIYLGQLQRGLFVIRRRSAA

Legend:
Experiment in all cases: log2 fold change, soluble protein after heating vs DMSO (PISA); higher = thermal stabilisation; K562 cells, 10 uM, 30 min; active = over 0.2 and 3.5 SD of the protein, either way, in both replicates (recomputed)
IRAK-1-4 Inhibitor I = compound: C1COCCN1CCN2C3=CC=CC=C3N=C2NC(=O)C4=CC(=CC=C4)[N+](=O)[O-] [IRAK-1-4 Inhibitor I]
Procedure, shortened: (§1)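 K562 cells (2×10^6 cells/mL) were treated with 10 μM compound for 30 min, and aliquots were heated for 3 min over 48°C-58°C. Pooled aliquots were extracted in PBS with 0.5% NP-40 at 4°C, and the supernatant after 21,000xg for 90 min was measured by TMTpro 16plex LC-MS/MS with channel sums equalised. Reported thermal stability, relative to control samples and from duplicates, is a log2 fold change.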

ibrutinib = compound: C=CC(=O)N1CCC[C@@H](n2nc(-c3ccc(Oc4ccccc4)cc3)c3c(N)ncnc32)C1 [ibrutinib]
Procedure, shortened: as §1

[1] = compound: CC(=O)c1cnc2ccc(-c3cc(Cl)c(O)c(Cl)c3)nc2c1N[C@H]1CC[C@H](CN(C)C)CC1
Procedure, shortened: as §1

ralimetinib = compound: CC(C)(C)Cn1c(N)nc2ccc(-c3[nH]c(C(C)(C)C)nc3-c3ccc(F)cc3)nc21 [ralimetinib]
Procedure, shortened: as §1

[2] = compound: CC(C)(O)CC(=O)NCCn1ccc2ncnc(Nc3ccc(Oc4cccc(C(F)(F)F)c4)c(Cl)c3)c21
Procedure, shortened: as §1

[3] = compound: CC(C)C1=C2N=C(C=C(N2N=C1)NCC3=CC=CC=C3)NCCCCCCN
Procedure, shortened: as §1

[4] = compound: CC(C)C[C@@H](C=O)NC(=O)[C@H](CC(C)C)NC(=O)[C@H](CC(C)C)NC(=O)OCc1ccccc1
Procedure, shortened: as §1

pinometostat = compound: CC(C)N(C[C@H]1O[C@@H](n2cnc3c(N)ncnc32)[C@H](O)[C@@H]1O)[C@H]1C[C@@H](CCc2nc3cc(C(C)(C)C)ccc3[nH]2)C1 [pinometostat]
Procedure, shortened: as §1

[5] = compound: CC1=C(C(CC(=O)N1)C2=CC=C(C=C2)C(F)(F)F)C(=O)NC3=C(C=C4C(=C3)C=NN4)F
Procedure, shortened: as §1

[6] = compound: CC1=C(C2=C(C=C1)C(=O)C3=CC=CC=C3N2CCCN)C
Procedure, shortened: as §1

[7] = compound: CC1=C(C=C(C=C1)NC(=O)C2=CC(=CC=C2)C(C)(C)C#N)NC3=CC4=C(C=C3)N=CN(C4=O)C
Procedure, shortened: as §1

[8] = compound: CC1=C(C=C(C=C1)NC(=O)C2=CC(=CC=C2)N(C)C)NC(=O)C3=CC=C(C=C3)O
Procedure, shortened: as §1

[9] = compound: CC1=CC=C(C=C1)SC2=C3C=C(SC3=CN=C2)C(=O)N
Procedure, shortened: as §1

[10] = compound: CC1=NC(=CC=C1)C2=C(N=C(N2)C(C)(C)C)C3=CC4=NC=CN=C4C=C3
Procedure, shortened: as §1

Nexturastat A = compound: CCCCN(Cc1ccc(C(=O)NO)cc1)C(=O)Nc1ccccc1 [Nexturastat A]
Procedure, shortened: as §1

vemurafenib = compound: CCCS(=O)(=O)Nc1ccc(F)c(C(=O)c2c[nH]c3ncc(-c4ccc(Cl)cc4)cc23)c1F [vemurafenib]
Procedure, shortened: as §1

[11] = compound: CCCS(=O)(=O)Nc1ccc(F)c(C(=O)c2c[nH]c3ncc(Cl)cc23)c1F
Procedure, shortened: as §1

[12] = compound: CCCc1cc(C)[nH]c(=O)c1CNC(=O)c1cc(-c2ccnc(N3CCN(C)CC3)c2)cc2c1cnn2C(C)C
Procedure, shortened: as §1

givinostat = compound: CCN(CC)Cc1ccc2cc(COC(=O)Nc3ccc(C(=O)NO)cc3)ccc2c1 [givinostat]
Procedure, shortened: as §1

barasertib = compound: CCN(CCCOc1ccc2c(Nc3cc(CC(=O)Nc4cccc(F)c4)[nH]n3)ncnc2c1)CCOP(=O)(O)O [barasertib]
Procedure, shortened: as §1

| Target | log2 fold change (IRAK-1-4 Inhibitor I) | log2 fold change (ibrutinib) | log2 fold change [1] | log2 fold change (ralimetinib) | log2 fold change [2] | log2 fold change [3] | log2 fold change [4] | log2 fold change (pinometostat) | log2 fold change [5] | log2 fold change [6] | log2 fold change [7] | log2 fold change [8] | log2 fold change [9] | log2 fold change [10] | log2 fold change (Nexturastat A) | log2 fold change (vemurafenib) | log2 fold change [11] | log2 fold change [12] | log2 fold change (givinostat) | log2 fold change (barasertib) |
| --- | --- | --- | --- | --- | --- | --- | --- | --- | --- | --- | --- | --- | --- | --- | --- | --- | --- | --- | --- | --- |
| STX6 (UniProt O43752) | inactive: -0.142 | inactive: -0.013 | inactive: -0.085 | inactive: 0.02 | inactive: -0.095 | inactive: 0.059 | inactive: -0.004 | inactive: -0.11 | inactive: -0.041 | inactive: -0.001 | inactive: -0.009 | inactive: 0.034 | inactive: 0.01 | inactive: -0.172 | inactive: 0.036 | inactive: -0.038 | inactive: -0.014 | inactive: -0.027 | inactive: 0.002 | inactive: 0.06 |
| STMN1 (UniProt P16949) | inactive: 0.034 | inactive: -0.064 | inactive: 0.044 | inactive: -0.016 | inactive: 0.069 | inactive: 0.104 | inactive: -0.025 | inactive: -0.063 | inactive: 0.044 | inactive: -0.013 | inactive: 0.006 | inactive: 0.014 | inactive: 0.005 | inactive: 0.032 | inactive: -0.063 | inactive: -0.016 | inactive: -0.102 | inactive: -0.054 | inactive: -0.03 | inactive: -0.015 |
| TAPT1 (UniProt Q6NXT6) | inactive: -0.008 | inactive: 0.01 | inactive: 0.02 | inactive: -0.085 | inactive: 0.027 | inactive: 0.014 | inactive: 0.018 | inactive: 0.024 | inactive: 0.006 | inactive: -0.003 | inactive: -0.051 | inactive: -0.015 | inactive: -0.017 | inactive: -0.033 | inactive: -0.033 | inactive: -0.017 | inactive: 0.012 | inactive: -0.036 | inactive: 0.017 | inactive: 0 |
| TBC1D13 (UniProt Q9NVG8) | inactive: 0.054 | inactive: 0.013 | inactive: 0.016 | inactive: -0.045 | inactive: -0.046 | inactive: 0.006 | inactive: -0.009 | inactive: -0.026 | inactive: 0.032 | inactive: 0.016 | inactive: -0.027 | inactive: 0.018 | inactive: 0.009 | inactive: -0.017 | inactive: 0.02 | inactive: 0.004 | inactive: 0.016 | inactive: -0.028 | inactive: 0.014 | inactive: 0.013 |
| TAF8 isoform 2 (UniProt Q7Z7C8) | inactive: 0.083 | inactive: -0.055 | inactive: 0.085 | inactive: 0.021 | inactive: -0.087 | inactive: 0.014 | inactive: 0.007 | inactive: 0.121 | inactive: 0.01 | inactive: -0.024 | inactive: -0.113 | inactive: 0.027 | inactive: 0.023 | inactive: -0.011 | inactive: -0.021 | inactive: 0.056 | inactive: -0.131 | inactive: 0.048 | inactive: 0.001 | inactive: 0.01 |
| TAGLN2 isoform 2 (UniProt P37802) | inactive: 0.047 | inactive: 0.009 | inactive: 0.001 | inactive: 0.014 | inactive: 0.015 | inactive: 0.004 | inactive: -0.018 | inactive: -0.058 | inactive: 0.004 | inactive: 0.008 | inactive: 0.012 | inactive: -0.02 | inactive: 0.033 | inactive: 0.057 | inactive: -0.033 | inactive: 0.048 | inactive: 0.048 | inactive: 0.025 | inactive: -0.01 | inactive: 0.056 |
| SZRD1 (UniProt Q7Z422) | inactive: 0.063 | inactive: -0.027 | inactive: -0.017 | inactive: -0.03 | inactive: 0.036 | inactive: 0.095 | inactive: 0.018 | inactive: -0.035 | inactive: 0.022 | inactive: -0.008 | inactive: 0 | inactive: 0.017 | inactive: -0.011 | inactive: 0.145 | inactive: -0.107 | inactive: -0.019 | inactive: 0.009 | inactive: -0.111 | inactive: -0.017 | inactive: 0.02 |
| SYP (UniProt P08247) | inactive: 0.045 | inactive: 0.003 | inactive: 0.009 | inactive: -0.073 | inactive: 0.055 | inactive: 0.05 | inactive: 0.006 | inactive: 0.034 | inactive: -0.059 | inactive: -0.054 | – | inactive: 0.025 | inactive: -0.017 | inactive: -0.064 | inactive: 0.004 | inactive: 0.106 | inactive: -0.095 | inactive: -0.13 | inactive: -0.05 | inactive: -0.009 |
| STX18 (UniProt Q9P2W9) | inactive: -0.025 | inactive: -0.019 | inactive: -0.079 | inactive: 0.04 | inactive: -0.006 | inactive: -0.148 | inactive: 0.066 | inactive: 0.057 | inactive: -0.04 | inactive: 0.083 | inactive: -0.054 | inactive: -0.056 | inactive: 0.042 | inactive: -0.009 | inactive: 0.024 | inactive: 0.001 | inactive: 0.024 | inactive: 0.05 | inactive: 0.038 | inactive: 0.036 |
| TALDO1 (UniProt P37837) | inactive: 0.041 | inactive: -0.013 | inactive: -0.022 | inactive: -0.046 | inactive: 0.026 | inactive: -0.034 | inactive: -0.007 | inactive: -0.02 | inactive: 0.003 | inactive: 0.01 | inactive: 0.006 | inactive: -0.006 | inactive: 0.011 | inactive: 0.041 | inactive: -0.096 | inactive: 0.021 | inactive: 0.038 | inactive: -0.001 | inactive: -0.058 | inactive: 0.024 |
| TAF15 (UniProt Q92804) | inactive: -0.029 | inactive: 0.094 | inactive: 0.029 | inactive: 0.012 | inactive: 0.152 | inactive: 0.104 | inactive: 0.083 | inactive: 0.042 | inactive: -0.038 | inactive: 0.099 | inactive: -0.008 | inactive: 0.046 | inactive: -0.016 | inactive: 0.022 | inactive: 0.086 | inactive: 0 | inactive: 0.004 | inactive: -0.102 | inactive: -0.076 | inactive: -0.144 |
| SUCLG2 (UniProt Q96I99) | inactive: 0.067 | inactive: 0.012 | inactive: -0.026 | inactive: -0.045 | inactive: -0.062 | inactive: -0.006 | inactive: 0.027 | inactive: -0.041 | inactive: -0.02 | inactive: 0.059 | inactive: -0.012 | inactive: 0.02 | inactive: 0.013 | inactive: 0.048 | inactive: -0.062 | inactive: 0.031 | inactive: 0.01 | inactive: 0.012 | inactive: 0.023 | inactive: 0.01 |
| TAOK3 (UniProt Q9H2K8) | inactive: 0.007 | inactive: 0.002 | active: -0.48 | inactive: 0.009 | inactive: -0.011 | inactive: 0.007 | inactive: 0.033 | inactive: 0.012 | – | inactive: 0.035 | inactive: 0.028 | inactive: -0.031 | inactive: 0.078 | inactive: 0.059 | inactive: -0.054 | inactive: 0.092 | inactive: 0.115 | inactive: 0 | inactive: -0.019 | inactive: 0.027 |
| TAOK1 (UniProt Q7L7X3) | inactive: 0.011 | inactive: -0.057 | active: -0.827 | inactive: 0.062 | inactive: 0.009 | inactive: -0.031 | inactive: 0.018 | inactive: -0.052 | – | inactive: 0.05 | inactive: -0.009 | inactive: 0.007 | inactive: -0.005 | inactive: -0.013 | inactive: 0.065 | inactive: 0.023 | inactive: 0.011 | inactive: -0.048 | inactive: 0.001 | inactive: 0.009 |
| SURF4 (UniProt O15260) | inactive: 0.067 | inactive: 0.037 | inactive: -0.047 | inactive: -0.062 | inactive: -0.017 | inactive: 0.036 | inactive: -0.045 | inactive: -0.036 | inactive: -0.011 | inactive: 0.059 | inactive: 0.019 | inactive: -0.013 | inactive: 0.014 | inactive: 0 | inactive: -0.064 | inactive: 0 | inactive: -0.006 | inactive: -0.023 | inactive: 0.008 | inactive: -0.043 |
| SUDS3 (UniProt Q9H7L9) | inactive: 0.016 | inactive: -0.052 | inactive: -0.007 | inactive: -0.129 | inactive: 0.155 | inactive: -0.028 | inactive: -0.214 | inactive: -0.041 | inactive: 0.073 | inactive: -0.074 | inactive: 0.038 | inactive: -0.191 | – | inactive: -0.125 | inactive: -0.048 | inactive: -0.132 | – | inactive: 0.042 | inactive: -0.137 | inactive: 0.069 |

Just log2 fold change [12] and log2 fold change [8] (two entries from above):
Target	log2 fold change [12]	log2 fold change [8]
TAF15 (UniProt Q92804)	inactive: -0.102	inactive: 0.046
SUCLG2 (UniProt Q96I99)	inactive: 0.012	inactive: 0.02
